Assay results

By UniProt entry, the sequences of proteins in these tests, tags left out.
UniProt P11712, whole entry, target on record: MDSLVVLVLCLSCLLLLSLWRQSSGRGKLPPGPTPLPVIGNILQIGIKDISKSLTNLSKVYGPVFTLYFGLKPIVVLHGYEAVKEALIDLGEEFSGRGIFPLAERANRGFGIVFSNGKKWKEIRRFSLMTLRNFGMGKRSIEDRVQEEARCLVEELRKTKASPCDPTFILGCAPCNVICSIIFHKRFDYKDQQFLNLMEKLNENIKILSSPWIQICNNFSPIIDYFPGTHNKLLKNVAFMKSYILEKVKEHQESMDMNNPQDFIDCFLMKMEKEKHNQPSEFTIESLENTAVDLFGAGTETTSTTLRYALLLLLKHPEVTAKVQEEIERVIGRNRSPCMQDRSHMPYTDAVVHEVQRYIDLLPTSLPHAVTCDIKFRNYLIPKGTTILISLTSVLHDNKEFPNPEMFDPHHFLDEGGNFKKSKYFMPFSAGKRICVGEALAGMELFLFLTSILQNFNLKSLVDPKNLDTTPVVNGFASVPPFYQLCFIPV

Data taken from PubChem BioAssay AID1919973, deposited by NCATS (2024).

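Light signal from luciferin made by CYP2C9 enzyme activity, used to find test substances that block this human liver drug-metabolizing enzyme.
Each substance was run as a dilution series, mostly from about 19.5 nM up to roughly 34 µM.
The number is the fitted half-maximal inhibitory concentration (AC50); a lower value means stronger inhibition of CYP2C9.
Calls come from the dose-curve class and a derived score, with weak, partial or poorly fitted inhibition curves scoring under 40 and filed as inconclusive.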

Values are in µM.
All entries here are filed as inconclusive.
Only part of the assay is shown, chiefly results filed as inconclusive.
A potency from a partial, single-point or poor curve is only a rough figure.
Some entries filed as inconclusive have a full curve.
Activity scores are not listed here.

For COc1cc2c(cc1O)C[C@H]1c3c(cc(OC)c(O)c3-2)CCN1C the result was potency 10 µM (inhibitor, partial curve). C=C(C)[C@@H]1CC=C(C=O)CC1 read potency 44.67 µM (inhibitor, partial curve). For O=C(O)c1cc(O)c(O)c(O)c1 the result was potency 3.548 µM (inhibitor, full curve). CCCCCCCCCCCCCC(=O)O gave potency 31.62 µM (inhibitor, single point). For C[C@]12CC[C@H](O)CC1=CC[C@@H]1[C@@H]2CC[C@]2(C)C(=O)CC[C@@H]12 the result was potency 14.13 µM (inhibitor, partial curve).

O=C(/C=C/c1ccc(O)c(O)c1)O[C@@H]1CC(O)(C(=O)O)C[C@@H](OC(=O)/C=C/c2ccc(O)c(O)c2)C1O (some centres unmarked) read potency 22.39 µM (inhibitor, partial curve). Result for Oc1cccc(O)c1O was potency 25.12 µM (inhibitor, partial curve, poor fit). For COC1=CC(=O)O[C@@H](/C=C/c2ccc3c(c2)OCO3)C1 the result was potency 14.13 µM (inhibitor, partial curve). C[S+](CC[C@H](N)C(=O)O)C[C@H]1O[C@@H](n2cnc3c(N)ncnc32)[C@H](O)[C@@H]1O (some centres unmarked) gave potency 12.59 µM (inhibitor, full curve).